Data reported in the supplement of paper PMC12889115.
This is one part of the list. Values are raw readings; no control value is given beside them.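 Primary screen: polymyxin B was added at a level permeabilizing Salmonella outer membranes while sparing inner membranes. DMSO wells, both with and without polymyxin B, established maximum growth. Plate-to-plate variation meant each plate was ranked on its own, and the lowest-OD600 compounds were selected as hits.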

Test system: Salmonella enterica serovar Typhimurium SL1344
Assay: bacterial growth OD600 after 18 h with compound and polymyxin B; higher = more bacterial growth (less inhibition)
Details: 50 µM, Mueller-Hinton broth

Row | Structure (SMILES) | bacterial growth OD600 (polymyxin B 1 µg/mL) | bacterial growth OD600 (polymyxin B 0.75 µg/mL)
1 | Cc1ccccc1Cn1cc(C(=O)N2CCC(C(O)CCc3ccccc3)CC2)nn1 (stereo not drawn) | 0.769 | 
2 | CCCn1cc(CN(CCc2ccccc2)CC2CCCN(C)C2)c(C)n1 (stereo not drawn) | 1.18 | 
3 | CO[C@H]1[C@H](NC(=O)c2ccco2)c2ccccc2C12CCN(Cc1cc3ccccc3s1)CC2 |  | 0.005
4 | CC#CC(=O)N1CCCC(Nc2ccc(C(C)C)cc2)C1 (stereo not drawn) | 0.879 | 
5 | C=CCCC(=O)NC1CCCN(Cc2ccc(CC(C)C)cc2)C1 (stereo not drawn) | 1.04 | 
6 | CCCNC(=O)N1CCC2(CCCN(CC3CCCCC3)C2=O)C1 (stereo not drawn) | 0.841 | 
7 | O=C(Nc1ccc(Oc2ccccc2)nc1)C1CCCCN1Cc1cccnc1 (stereo not drawn) |  | 0.83
8 | COCCNC(=O)c1ccc(OC2CCN(C3CCCCC3)CC2)c(Cl)c1 | 0.836 | 

2 of these compounds, reformatted.
Row,Structure (SMILES),bacterial growth OD600 (polymyxin B 1 µg/mL),bacterial growth OD600 (polymyxin B 0.75 µg/mL)
7,O=C(Nc1ccc(Oc2ccccc2)nc1)C1CCCCN1Cc1cccnc1 (stereo not drawn),,0.83
8,COCCNC(=O)c1ccc(OC2CCN(C3CCCCC3)CC2)c(Cl)c1,0.836,
